This is an account of results in article PMC3169474.

Chains of the proteins cited; added tags and fusions are not shown.
UniProt Q6DFM0, entry or part of it: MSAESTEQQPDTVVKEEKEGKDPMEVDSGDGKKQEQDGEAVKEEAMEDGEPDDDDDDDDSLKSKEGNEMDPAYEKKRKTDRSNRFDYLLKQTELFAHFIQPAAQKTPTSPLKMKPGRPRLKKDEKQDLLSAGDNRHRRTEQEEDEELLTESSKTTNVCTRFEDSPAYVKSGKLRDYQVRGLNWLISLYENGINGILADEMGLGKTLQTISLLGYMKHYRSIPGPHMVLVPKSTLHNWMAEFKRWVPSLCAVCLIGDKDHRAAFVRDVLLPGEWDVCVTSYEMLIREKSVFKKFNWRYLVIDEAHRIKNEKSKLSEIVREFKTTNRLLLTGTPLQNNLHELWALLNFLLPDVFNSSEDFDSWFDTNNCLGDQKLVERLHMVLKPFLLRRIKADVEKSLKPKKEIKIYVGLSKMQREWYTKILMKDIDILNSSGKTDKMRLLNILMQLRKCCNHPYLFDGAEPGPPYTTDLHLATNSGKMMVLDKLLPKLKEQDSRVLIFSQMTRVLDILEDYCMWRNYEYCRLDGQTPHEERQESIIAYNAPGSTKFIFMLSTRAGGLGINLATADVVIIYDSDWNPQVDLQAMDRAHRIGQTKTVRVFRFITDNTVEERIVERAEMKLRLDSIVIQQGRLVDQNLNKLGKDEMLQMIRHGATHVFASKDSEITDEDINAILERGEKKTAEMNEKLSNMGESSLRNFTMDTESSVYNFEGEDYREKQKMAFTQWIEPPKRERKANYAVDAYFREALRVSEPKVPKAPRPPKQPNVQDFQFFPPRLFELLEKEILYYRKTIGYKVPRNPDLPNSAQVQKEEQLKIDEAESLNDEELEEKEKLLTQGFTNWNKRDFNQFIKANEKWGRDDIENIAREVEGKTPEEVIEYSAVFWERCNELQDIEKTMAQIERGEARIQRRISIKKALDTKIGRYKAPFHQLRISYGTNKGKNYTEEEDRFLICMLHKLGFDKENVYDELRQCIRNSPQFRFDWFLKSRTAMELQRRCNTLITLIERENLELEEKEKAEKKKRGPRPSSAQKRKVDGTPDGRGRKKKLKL

Construct, isoform or probe ends are uncertain for at least one entry. Where cells or extracts were used, other partners may take part. For part of these data: Negatives hold for the conditions tested. For part of these data: Protein sequences can lack the tags named with them. For part of these data: A weaker result is weaker than the reference pair of the same experiment.

What all share (test): pull-down
One data set has as its target ISWI (endogenous) (UniProt Q6DFM0). The settings on record: uniform binding irrespective of methylation, biotin-dUTP/dATP fill-in, 20 mM Tris pH 8.0, 1 mM EDTA, 5 mM DTT, 5 mM MgCl2, 100 mM KCl, 0.125% NP40, protease inhibitors, overnight at 4 C, washes 100-200 mM KCl (up to 400 mM tested), protein in an extract, label: biotin-16-dUTP, biotin-14-dATP, streptavidin beads.

The next data set deals with MeCP2 (endogenous) (UniProt Q9YGC6). The settings on record: biotin-dUTP/dATP fill-in, 20 mM Tris pH 8.0, 1 mM EDTA, 5 mM DTT, 5 mM MgCl2, 100 mM KCl, overnight at 4 C, washes 100-200 mM KCl (up to 400 mM tested), protein in an extract, label: biotin-16-dUTP, biotin-14-dATP, streptavidin beads.
Data set [1] has as its system MBD3 short form (endogenous). The following applies: biotin-dUTP/dATP fill-in, 20 mM Tris pH 8.0, 1 mM EDTA, 5 mM DTT, 5 mM MgCl2, 100 mM KCl, 0.125% NP40, protease inhibitors, overnight at 4 C, washes 100-200 mM KCl (up to 400 mM tested), protein in an extract, label: biotin-16-dUTP, biotin-14-dATP, streptavidin beads.
The test system of the next data set is Mi-2 (endogenous). The settings on record: possibly via NuRD complex, biotin-dUTP/dATP fill-in, 20 mM Tris pH 8.0, 1 mM EDTA, 5 mM DTT, 5 mM MgCl2, 100 mM KCl, 0.125% NP40, protease inhibitors, overnight at 4 C, washes 100-200 mM KCl (up to 400 mM tested), protein in an extract, label: biotin-16-dUTP, biotin-14-dATP, streptavidin beads.
A further data set concerns the target T1, TFIIB (endogenous) (UniProt A0A8J0Q1H8).
T1 sequence (looked up, limits assumed): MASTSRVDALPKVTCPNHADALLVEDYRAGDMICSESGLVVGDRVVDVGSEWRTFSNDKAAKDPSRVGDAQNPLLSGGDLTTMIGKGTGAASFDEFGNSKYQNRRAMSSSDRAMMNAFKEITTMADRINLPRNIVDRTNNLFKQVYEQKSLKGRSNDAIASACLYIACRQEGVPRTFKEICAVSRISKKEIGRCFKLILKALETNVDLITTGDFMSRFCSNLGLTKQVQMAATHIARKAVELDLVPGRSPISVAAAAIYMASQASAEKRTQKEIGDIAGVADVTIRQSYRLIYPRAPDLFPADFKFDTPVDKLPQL
The settings on record: biotin-dUTP/dATP fill-in, 20 mM Tris pH 8.0, 1 mM EDTA, 5 mM DTT, 5 mM MgCl2, 100 mM KCl, 0.125% NP40, protease inhibitors, overnight at 4 C, washes 100-200 mM KCl (up to 400 mM tested), protein in an extract, label: biotin-16-dUTP, biotin-14-dATP, streptavidin beads.

The subject of another data set is MBD3 (endogenous). The following applies: biotin-dUTP/dATP fill-in, 20 mM Tris pH 8.0, 1 mM EDTA, 5 mM DTT, 5 mM MgCl2, 100 mM KCl, 0.125% NP40, protease inhibitors, overnight at 4 C, washes 100-200 mM KCl (up to 400 mM tested), protein in an extract, label: biotin-16-dUTP, biotin-14-dATP, streptavidin beads.
Where [2] appears, read: 5-methylcytosine at CpG (SssI), both strands.

On to “GATCCCGGAGTTAA / GATCTTAACTCCGG [methylated concatamerized GATC-CCGG-AGTTAA probe (SssI+)]”, for which the binding result is “binds” in the data set with ISWI (endogenous) (setting [2]); “binds” in the data set with MeCP2 (endogenous) (tolerates 100 and 200 mM KCl wash, 5-methylcytosine at CpG (SssI), both strands, 0.125% NP40, protease inhibitors); “binds” in data set [1] (setting [2]); “binds” in the data set on Mi-2 (endogenous) (setting [2]); “no binding” in the data set with TFIIB (endogenous) (setting [2]); “binds” in the data set on MBD3 (endogenous) (mostly eluted at 200 mM KCl wash, 5-methylcytosine at CpG (SssI), both strands).
Regarding “GATCCCGGAGTTAA / GATCTTAACTCCGG [unmethylated concatamerized GATC-CCGG-AGTTAA probe (SssI-)]”, the binding result with ISWI (endogenous) is “binds”; with MeCP2 (endogenous) (strong preference for methylated DNA, 0.125% NP40, protease …), “binds more weakly”; in data set [1] (preference for methylated DNA), “binds more weakly”; with Mi-2 (endogenous), “binds”; with TFIIB (endogenous), “no binding”; with MBD3 (endogenous) (legend: binds both, text: strong preference for methylated), “binds”.
